Measured values as given in patent US11155552B2, “Rutaecarpine analogs and applications thereof” (TAIPEI MEDICAL UNIVERSITY, priority 2018, dated 2021).
At least one compound was matched to its structure with a doubt left.

Test system: BALB/c mice
Assay: Lung inflammation in OVA/alum-challenged BALB/c mice
Type: in vivo
Conditions: alternate-day oral administration, FIG. 5(a)
Experimental: BALB/c mice (six weeks of age) were obtained from the Animal Center of the College of Medicine, National Taiwan University (Taipei, Taiwan), and sensitized with an intraperitoneal injection of 20 μg of ovalbumin (OVA) emulsified in 2 mg of aluminum hydroxide in a total volume of 200 μL phosphate-buffered saline (PBS) on day 0, and boosted with 50 μg of OVA emulsified in 4 mg of aluminum hydroxide on days 14 and 28. RUT or F-RUT was given by oral administration on days 30, 32, 34, 36, and 38. For post-challenge, all mice were treated intranasally with OVA (100 μg in a total volume of 40 μL PBS) on days 40, 41, 42, and 43. At 24 h after the last OVA challenge, mice were sacrificed, and their organs were collected. All experimental procedures were reviewed and approved by the Institutional Animal Care and Use Committee or Panel. Lung tissues were fixed in 4% paraformaldehyde (sc-281692; Santa Biotechnology) and embedded in paraffin. Tissue sections were made at a 5-μm thickness, and stained with hematoxylin and eosin (H&E) solution for examination of inflammation.

O=c1c2ccccc2nc2n1CCc1c-2[nH]c2ccccc12 [RUT, Rutaecarpine]
OVA/alum-induced lung inflammation: ameliorated the OVA/alum-induced lung inflammation
